{
  "source": "patent US11274106B2",
  "about": "“Topoisomerase inhibitors with antibacterial and anticancer activity” (THE BOARD OF TRUSTEES OF THE UNIVERSITY OF ILLINOIS, priority 2017, dated 2022)",
  "test_system": "MDA-MB-231 triple negative breast cancer cells",
  "assay": "Antiproliferative SRB assay, MDA-MB-231",
  "type": "cell-based",
  "settings": "FIG. 1, 72 hour, listed as DNM",
  "method": "FIG. 1. […] Cell death measured by SRB assay after 72 hour of compound exposure (n≥3 biological replicates, error bars show SEM). IC50 values given as mean±SEM from ≥3 biological replicates.\nTo investigate the feasibility of developing a class of antitumor antibiotics based upon the DNM scaffold, the ability of the DNM to exert an antiproliferative effect against MDA-MB-231 breast cancer cells was evaluated.",
  "note": "“Also recorded” adds a separate entry of the source. For at least one compound, name, drawing or mass did not settle the structure.",
  "data": [
    {"molecule": "Cc1cc(=O)n(C)c2c3c4c(cc12)c(C)cc(=O)n4CO3", "note": "[Compound 1]", "values": [
      {"measurement": "Antiproliferative effect against MDA-MB-231 cells", "result": "modest antiproliferative effects; also recorded: quantitative cell death is not produced"}
    ]}
  ]
}
